The list does not hold the whole screen: it is rich in T/C values a quarter to a half above the control, in often repeated tests (any T/C) and in doses without a T/C. Other doses and runs of a compound stand elsewhere. T/C gives the treated animals as a percentage of the vehicle group. Some doses have a count of surviving animals in place of a T/C: the source files T/C as zero there, which appears to mark a toxic dose or a test without result, not a measured value. Some survivor counts are full or nearly so, which does not show that the dose was tolerated: the source hardly ever lists a survival T/C far under the control, and the zero likely stands for such cases as well. Survivors were counted at the toxicity check, usually on the fifth day, unless a day is given; later deaths do not show. Schedule codes are those of the source, read here as Q, the interval in days (D) or hours (H), X, the number of doses. Some schedule codes hold Z or #, which are not explained here. Additions like (4×) count equal records among those shown. Where survival is the endpoint, the PubChem record calls one and a half times the control and up active, and a quarter to a half above the control has no call in these data; cut-offs in other NCI protocols can differ. Some T/C values are followed by the survivors on the day toxicity was checked, most often the fifth; where none is given, no animal had died by that day.
Tested on: L1210 leukemia ip in BDF1 mice, survival T/C
Test: NCI In Vivo Anticancer Drug Screen. Data for tumor model L1210 Leukemia (intraperitoneal) in B6D2F1 (BDF1) mice
Settings: T/C endpoint: mean survival time, higher T/C = longer survival
[1] = dose: 400.0 mg/kg/injection, schedule: Q01DX009 (ip), vehicle: Klucel (hydroxypropylcellulose) (HPC)
[2] = dose: 200.0 mg/kg/injection, schedule: Q01DX009 (ip), vehicle: saline
[3] = dose: 400.0 mg/kg/injection, schedule: Q01DX009 (ip), vehicle: saline
[4] = dose: 400.0 mg/kg/injection, schedule: Q01DX001 (ip), vehicle: Klucel (hydroxypropylcellulose) (HPC)
[5] = dose: 200.0 mg/kg/injection, schedule: Q04DX003 (ip), vehicle: saline with Tween-80
[6] = dose: 400.0 mg/kg/injection, schedule: Q01DX001 (ip), vehicle: saline
[7] = dose: 100.0 mg/kg/injection, schedule: Q04DX003 (ip), vehicle: saline with Tween-80
[8] = dose: 400.0 mg/kg/injection, schedule: Q04DX003 (ip), vehicle: saline with Tween-80

O=C(CS)OCCOC(=O)CS
survivor count [1]: 5 of 6

Nc1n[nH]c(=S)s1
survivor count [1]: 3 of 6 | T/C (dose: 591.0 mg/kg/injection, schedule: Q01DX015 (ip), vehicle: Klucel (hydroxypropylcellulose) (HPC)): 132 % of control [9 of 10 alive] | survivor count (dose: 887.0 mg/kg/injection, schedule: Q01DX015 (ip), vehicle: Klucel (hydroxypropylcellulose) (HPC)): 0 of 10 | survivor count (dose: 1000.0 mg/kg/injection, schedule: Q01DX001 (ip), vehicle: Klucel (hydroxypropylcellulose) (HPC)): 1 of 10 | survivor count (dose: 1500.0 mg/kg/injection, schedule: Q01DX001 (ip), vehicle: Klucel (hydroxypropylcellulose) (HPC)): 0 of 10 | survivor count (dose: 2250.0 mg/kg/injection, schedule: Q01DX001 (ip), vehicle: Klucel (hydroxypropylcellulose) (HPC)): 0 of 10 | survivor count (dose: 3375.0 mg/kg/injection, schedule: Q01DX001 (ip), vehicle: Klucel (hydroxypropylcellulose) (HPC)): 0 of 10

O=COCC(O)COC=O
survivor count [2]: 6 of 6 | survivor count [3]: 3 of 6

CCN(CC)CCCNC(c1ccc(OC)cc1)C(Cl)(Cl)Cl (centres undefined)
survivor count (dose: 300.0 mg/kg/injection, schedule: Q01DX001 (ip), vehicle: saline): 0 of 6

CCCCCCCCCCCCSc1ccc2ccccc2c1
survivor count [4]: 6 of 6

O=C1[O][Hg][c]2c1cccc2[N+](=O)[O-]
survivor count (dose: 40.0 mg/kg/injection, schedule: Q04DX003 (ip), vehicle: Klucel (hydroxypropylcellulose) (HPC)): 3 of 6

CC(Br)C1=CC(c2ccccc2)(c2ccccc2)c2ccccc21 (centres undefined)
survivor count [5]: 6 of 6

O=C1CCn2c1c(O)c1ccccc1c2=O
survivor count [6]: 1 of 6

COc1ccc(C=Nc2ccc(OC(C)=O)cc2)cc1
T/C (dose: 400.0 mg/kg/injection, schedule: Q01DX009 (ip), vehicle: other): 132 % of control | T/C (dose: 600.0 mg/kg/injection, schedule: Q01DX009 (ip), vehicle: other): 141 % of control

CCCCOP(=O)(c1ccccc1)N1CCCCC1 (centres undefined)
survivor count (dose: 200.0 mg/kg/injection, schedule: Q04DX002 (ip), vehicle: saline with Tween-80): 1 of 3 | survivor count (dose: 400.0 mg/kg/injection, schedule: Q04DX002 (ip), vehicle: saline with Tween-80): 0 of 3

COc1ccc(C(=NN=C(N)N)c2ccc(OC)cc2)cc1
survivor count (dose: 120.0 mg/kg/injection, schedule: Q01DX Z (ip), vehicle: saline): 5 of 6 | survivor count (dose: 960.0 mg/kg/injection, schedule: Q01DX Z (oral), vehicle: saline): 3 of 6

O=NN(CCCl)C(=O)NC1CCSc2ccccc21 (centres undefined)
T/C (dose: 12.0 mg/kg/injection, schedule: Q01DX001 (ip), vehicle: other): 145 % of control | survivor count (dose: 93.0 mg/kg/injection, schedule: Q01DX001 (ip), vehicle: other): 6 of 6 | T/C (dose: 135.0 mg/kg/injection, schedule: Q01DX001 (ip), vehicle: other): 142 % of control [9 of 10 alive] | survivor count (dose: 200.0 mg/kg/injection, schedule: Q01DX001 (ip), vehicle: other): 6 of 10 | survivor count (dose: 250.0 mg/kg/injection, schedule: Q01DX001 (ip), vehicle: other): 0 of 6 | survivor count (dose: 375.0 mg/kg/injection, schedule: Q01DX001 (ip), vehicle: other): 0 of 6

COC(=O)C(=CC(Cl)(Cl)Cl)C(=O)OC
survivor count (dose: 50.0 mg/kg/injection, schedule: Q01DX009 (ip), vehicle: Klucel (hydroxypropylcellulose) (HPC)): 4 of 6 | survivor count (dose: 100.0 mg/kg/injection, schedule: Q01DX009 (ip), vehicle: Klucel (hydroxypropylcellulose) (HPC)): 0 of 6 | survivor count (dose: 200.0 mg/kg/injection, schedule: Q01DX009 (ip), vehicle: Klucel (hydroxypropylcellulose) (HPC)): 0 of 6 | survivor count [4]: 0 of 6

NC(Cc1cn(Cc2ccccc2)cn1)C(=O)O (centres undefined)
survivor count [7]: 0 of 3 | survivor count [5]: 0 of 3 | survivor count [8]: 0 of 3

CCOC(=O)c1cc([N+](=O)[O-])cc2c1-c1c(cc([N+](=O)[O-])cc1[N+](=O)[O-])C2=O
survivor count (dose: 200.0 mg/kg/injection, schedule: Q04DX003 (ip), vehicle: Klucel (hydroxypropylcellulose) (HPC)): 2 of 6 | survivor count (dose: 400.0 mg/kg/injection, schedule: Q04DX003 (ip), vehicle: Klucel (hydroxypropylcellulose) (HPC)): 1 of 6

CC(=O)NC1C(OC(C)=O)OC(COC(c2ccccc2)(c2ccccc2)c2ccccc2)C(OS(C)(=O)=O)C1OC(C)=O (centres undefined)
survivor count [5]: 3 of 3

O=C1OC(c2ccc3c(c2)OCO3)C(C(=O)CCl)c2ccccc21 (centres undefined)
survivor count [8]: 1 of 6

N#CC(Nc1cc(=O)[nH]c(=O)[nH]1)c1ccccc1 (centres undefined)
survivor count (dose: 400.0 mg/kg/injection, schedule: Q04DX002 (ip), vehicle: Klucel (hydroxypropylcellulose) (HPC)): 1 of 3

NNc1n[nH]c(=S)n1N
survivor count (dose: 50.0 mg/kg/injection, schedule: Q04DX003 (ip), vehicle: saline): 6 of 6

CC1(c2ccc(Cl)cc2)NC(=O)N(CC(N)=O)C1=O (centres undefined)
survivor count [5]: 3 of 6

CCOC(=O)C1C(=O)C=C(c2ccccc2)CC1c1ccccc1 (centres undefined)
survivor count (dose: 100.0 mg/kg/injection, schedule: Q04DX002 (ip), vehicle: saline with Tween-80): 3 of 3

N/C(=N\O)c1cn(C2OC(CO)C(O)C2O)c2nc(Cl)nc(N)c12 (centres undefined)
survivor count (dose: 100.0 mg/kg/injection, schedule: Q01DX005 (ip), vehicle: saline): 6 of 6 | T/C (dose: 200.0 mg/kg/injection, schedule: Q01DX001 (ip), vehicle: Klucel (hydroxypropylcellulose) (HPC)): 125 % of control | T/C (dose: 200.0 mg/kg/injection, schedule: Q01DX005 (ip), vehicle: saline): 127 % of control

O=C(Nc1ccccc1)Sc1ccccc1
survivor count (dose: 125.0 mg/kg/injection, schedule: Q01DX001 (ip), vehicle: Klucel (hydroxypropylcellulose) (HPC)): 6 of 6 | survivor count (dose: 250.0 mg/kg/injection, schedule: Q01DX001 (ip), vehicle: Klucel (hydroxypropylcellulose) (HPC)): 1 of 6

CCCCCCCCCC(=O)N(CCC)CCC
survivor count [8]: 3 of 3

N#CC(Br)(Br)C#N
survivor count (dose: 50.0 mg/kg/injection, schedule: Q01DX001 (ip), vehicle: carboxymethylcellulose (CMC)): 0 of 4 | survivor count (dose: 100.0 mg/kg/injection, schedule: Q01DX001 (ip), vehicle: carboxymethylcellulose (CMC)): 0 of 4 | survivor count (dose: 200.0 mg/kg/injection, schedule: Q01DX001 (ip), vehicle: carboxymethylcellulose (CMC)): 0 of 4 | survivor count (dose: 400.0 mg/kg/injection, schedule: Q01DX001 (ip), vehicle: carboxymethylcellulose (CMC)): 0 of 4

C=CCOCC(O)C[As](=O)(O)c1ccc(Cl)cc1 (centres undefined)
survivor count (dose: 25.0 mg/kg/injection, schedule: Q04DX003 (ip), vehicle: saline with Tween-80): 0 of 6 | survivor count (dose: 50.0 mg/kg/injection, schedule: Q04DX003 (ip), vehicle: saline with Tween-80): 0 of 6 | survivor count [7]: 0 of 6 (2×) | survivor count [5]: 0 of 6 | survivor count [8]: 0 of 6

CC(C1=C(CCN(C)C)Cc2ccccc21)c1ccccn1 (centres undefined)
survivor count (dose: 200.0 mg/kg/injection, schedule: Q01DX001 (ip), vehicle: saline): 0 of 6 | survivor count [6]: 0 of 6

CCN1CC(CCN2CCOCC2)C(c2ccccc2)(c2ccccc2)C1=O (centres undefined)
survivor count [2]: 0 of 6 | survivor count (dose: 200.0 mg/kg/injection, schedule: Q04DX003 (ip), vehicle: saline): 3 of 4 | survivor count [3]: 0 of 6 | survivor count (dose: 400.0 mg/kg/injection, schedule: Q04DX003 (ip), vehicle: saline): 0 of 4

CN(C)c1ccc(C(C#N)=C(C#N)C#N)cc1
survivor count (dose: 400.0 mg/kg/injection, schedule: Q01DX009 (ip), vehicle: acetone): 4 of 6
